Measured values from article PMC11352932, “Enhancing Maturation and Translatability of Human Pluripotent Stem Cell-Derived Cardiomyocytes through a Novel Medium Containing Acetyl-CoA Carboxylase 2 Inhibitor” (Cells, 2024).

System: hiPSC-CMs
Test: In vitro hypertrophy model, ET-1 stimulation
Type: cell-based, human
Procedure: After 2 weeks in either standard or maturation media, medium was switched to hypertrophy stimulation medium composed of RPMI no glucose supplemented with B27 plus insulin, 5.5 mM glucose and 10 nM endothelin-1 (ET-1, E7764). hPSC-CMs were cultured for 48 h in this medium before their use for further analyses.
Cell area, circularity index, and aspect ratio were determined with FIJI (ImageJ v.2.14.0) software using standard analysis plugins. For each condition, at least 60 cells were analyzed.
RNA extraction was performed using the Agencourt RNAdvance Cell V2 kit (catalog no. A47942, Beckman Coulter, Bromma, Sweden) according to the manufacturer’s instructions. RNA quality was assessed using the Fragment Analyzer Standard Sensitivity RNA kit from Agilent Technologies, ensuring an RNA integrity number greater than 7. […] Sequenced reads were quality-controlled with the FastQC software and pre-processed with Trim Galore. Processed reads from iCell cardiomyocytes^2 and Chips22 were aligned to the reference genome GRCh37 with the STAR aligner, and Tophat2 with Bowties was used to map IPS C32 reads to GRCh38. Read counts for the genes were generated using the featureCounts library and normalized FPKM values calculated with StringTie. […]

## endothelin-1 [ET-1]
Cells cultured in maturation medium
  number of DEGs, ET-1-treated vs non-treated: 1171
Cells cultured in standard medium
  number of DEGs, ET-1-treated vs non-treated: 527
